Measured values from patent US20120177681A1, “Formulation of immunopotentiators” (priority 2010, published 2012).
Some results were stated once for a whole list of compounds, not compound by compound.

Type: physicochemical
Conditions: over at least a 3 week period
With `Cc1cc(OCCCC(F)(F)P(=O)(O)O)ccc1CCc1cnc2c(N)nc3cc(CCC(=O)O)ccc3c2c1` [Compound 3] the adsorption during storage was “at least 95%”.
For `Cc1cc(OCCOCCOCCC(F)(F)P(=O)(O)O)ccc1CCc1cnc2c(N)nc3cc(CCC(=O)O)ccc3c2c1` [Compound 4], the adsorption during storage was “at least 95%”.
In the case of `Cc1ccc2c(c1)nc(N)c1ncc(CCc3ccc(OCCCP(=O)(O)O)cc3C)cc12` [Compound 13], the adsorption during storage is reported as “at least 95%”.
